Drawing on PubChem BioAssay AID248 (DTP/NCI, 2004), this text covers survivor count and T/C for 26 compounds.

SMILES strings stand for the structures. The list does not hold the whole screen: it is rich in T/C values a quarter to a half above the control, in often repeated tests (any T/C) and in doses without a T/C. Further doses and runs are listed elsewhere. T/C is the treated group as % of the vehicle group. Some entries give survivors of the animals treated and no T/C: the source holds a T/C of zero for them, seemingly a mark for toxic or unscored doses. Some survivor counts are full or nearly so, which does not show that the dose was tolerated: the source hardly ever lists a survival T/C far under the control, and the zero likely stands for such cases as well. Survivors were counted at the toxicity check, usually on the fifth day, unless a day is given; later deaths do not show. Schedules are NCI's codes, read here as Q, the interval in days (D) or hours (H), X, the number of doses. Some schedule codes hold Z or #, which are not explained here. Some molecules as drawn cover several salts, stereoisomers or complexes of the source; a dose is that of the sample tested. Some entries were tested several times; their values stand side by side, smallest first. Additions like (4×) say how often a value occurs here. For survival time, the PubChem record calls one and a half times the control and up active, and a quarter to a half above the control has no call in these data; cut-offs in other NCI protocols can differ. Some T/C values carry the count of animals alive at the toxicity check (mostly the fifth day); without a count, all were alive then.

This experiment concerns L1210 leukemia ip in BDF1 mice, survival T/C. The experiment is described as follows: NCI In Vivo Anticancer Drug Screen. Data for tumor model L1210 Leukemia (intraperitoneal) in B6D2F1 (BDF1) mice. The settings on record: T/C endpoint: mean survival time, higher T/C = longer survival.
[1] abbreviates: dose: 100.0 mg/kg/injection, schedule: Q01DX001 (ip), vehicle: saline.
[2] abbreviates: dose: 100.0 mg/kg/injection, schedule: Q04DX003 (ip), vehicle: saline.
Where [3] appears, read: dose: 200.0 mg/kg/injection, schedule: Q01DX001 (ip), vehicle: saline.
Setting [4] is: dose: 400.0 mg/kg/injection, schedule: Q01DX001 (ip), vehicle: saline.
Setting [5] is: dose: 400.0 mg/kg/injection, schedule: Q04DX002 (ip), vehicle: Klucel (hydroxypropylcellulose) (HPC).
Where [6] appears, read: dose: 400.0 mg/kg/injection, schedule: Q01DX009 (ip), vehicle: saline with Tween-80.
[7] abbreviates: dose: 200.0 mg/kg/injection, schedule: Q01DX009 (ip), vehicle: saline with Tween-80.
Where [8] appears, read: dose: 300.0 mg/kg/injection, schedule: Q01DX001 (ip), vehicle: saline.
[9] abbreviates: dose: 400.0 mg/kg/injection, schedule: Q04DX003 (ip), vehicle: saline with Tween-80.
[10] abbreviates: dose: 100.0 mg/kg/injection, schedule: Q04DX002 (ip), vehicle: saline.
Where [11] appears, read: dose: 300.0 mg/kg/injection, schedule: Q01DX001 (ip), vehicle: other.

On to `CC(C)[P+](c1ccccc1)(c1ccccc1)c1ccccc1`, for which the survivor count reads like this: (dose: 32.5 mg/kg/injection, schedule: Q01DX009 (ip), vehicle: saline) 4 of 6; (dose: 65.0 mg/kg/injection, schedule: Q01DX009 (ip), vehicle: saline) 3 of 6; (dose: 80.0 mg/kg/injection, schedule: Q01DX001 (ip), vehicle: saline) 3 of 6; under setting [1], 2 of 6; under setting [2], 0 of 6; (dose: 150.0 mg/kg/injection, schedule: Q04DX003 (ip), vehicle: saline) 0 of 6. Besides, the survivor count is, setting by setting: under setting [3], 0 of 6 (2×); under setting [4], 0 of 6 (2×). Further, under setting [2], the T/C is 129 % of control [5 of 6 alive].

Turning to `CCOC(=O)c1cccnc1NC(=O)c1ccccc1`, under setting [5], the T/C was 125 % of control and the survivor count was 3 of 3.

`CC(=O)Nc1ccc([I+]c2ccc([N+](=O)[O-])cc2)cc1`: the survivor count under setting [6] is listed as 0 of 6.

Take `CCOC(=O)/C(C)=N\N(C)C`: the survivor count (dose: 400.0 mg/kg/injection, schedule: Q01DX009 (ip), vehicle: saline) is given as 0 of 6.

`Cc1ccc([N+](=O)[O-])cc1NC(=O)SCCOC(=O)COc1ccc(Cl)cc1`: the survivor count by setting is: under setting [7], 6 of 6; under setting [6], 1 of 6.

For the compound `CC(=O)Oc1ccc(N2C(=O)C=CC2=O)cc1`, the survivor count runs as follows: (dose: 12.5 mg/kg/injection, schedule: Q04DX003 (ip), vehicle: Klucel (hydroxypropylcellulose) (HPC)) 3 of 6; (dose: 18.48 mg/kg/injection, schedule: Q01DX009 (ip), vehicle: Klucel (hydroxypropylcellulose) (HPC)) 0 of 6; (dose: 28.0 mg/kg/injection, schedule: Q01DX009 (ip), vehicle: Klucel (hydroxypropylcellulose) (HPC)) 0 of 6; (dose: 42.0 mg/kg/injection, schedule: Q01DX009 (ip), vehicle: Klucel (hydroxypropylcellulose) (HPC)) 0 of 6; (dose: 50.0 mg/kg/injection, schedule: Q04DX003 (ip), vehicle: Klucel (hydroxypropylcellulose) (HPC)) 2 of 6.

On to `CN(CC(O)CN)c1ccccc1` (stereo not given), for which the survivor count under setting [4] is on record as 0 of 4.

`CSC(CC(=O)O)C(=O)O` (stereo not given): under setting [8], the survivor count is recorded as 3 of 6.

In the case of `N=C(N)c1cccc(NC(=O)c2ccc(C(=O)Nc3cccc(C(=N)N)c3)cc2)c1`, the survivor count is recorded as 4 of 6 (dose: 120.0 mg/kg/injection, schedule: Q01DX Z (ip), vehicle: saline); 0 of 6 (dose: 125.0 mg/kg/injection, schedule: Q01DX Z (ip), vehicle: water); 3 of 6 (dose: 250.0 mg/kg/injection, schedule: Q01DX Z (ip), vehicle: water); 2 of 6 (dose: 500.0 mg/kg/injection, schedule: Q01DX Z (ip), vehicle: water).

Take `O=Nc1ccc(NO)c2ccccc12`: the survivor count is 2 of 4 (dose: 100.0 mg/kg/injection, schedule: Q04DX003 (ip), vehicle: saline with Tween-80); 0 of 4 (dose: 200.0 mg/kg/injection, schedule: Q04DX003 (ip), vehicle: saline with Tween-80); 6 of 6 (dose: 200.0 mg/kg/injection, schedule: Q04DX003 (ip), vehicle: saline); 0 of 4 under setting [9]; 5 of 6 (dose: 400.0 mg/kg/injection, schedule: Q04DX003 (ip), vehicle: saline).

`CCNC(C)(C)C(S)c1ccc(Cl)s1` (stereo not given): the survivor count by setting is: under setting [7], 3 of 6; under setting [9], 1 of 6.

As for `Cc1ccc(N=Nc2ccc(C)cc2NC(=O)c2c(Br)c(Br)c(Br)c(Br)c2C(=O)O)cc1`, the survivor count under setting [6] is 1 of 6.

Take `Cc1cncn1Cc1ccc([N+](=O)[O-])cc1`: the survivor count is, setting by setting: (dose: 100.0 mg/kg/injection, schedule: Q01DX009 (ip), vehicle: saline) 1 of 3; under setting [10], 1 of 3; (dose: 200.0 mg/kg/injection, schedule: Q04DX002 (ip), vehicle: saline) 0 of 3 and 0 of 6; (dose: 400.0 mg/kg/injection, schedule: Q04DX002 (ip), vehicle: saline) 0 of 3 and 0 of 6. In addition, the T/C under setting [10] is 97 [5 of 6 alive], 103, 103 % of control [4 of 6 alive].

Turning to `O=[N+]([O-])c1ccc(S)cc1`, for the setting “dose: 200.0 mg/kg/injection, schedule: Q04DX003 (ip), vehicle: Klucel (hydroxypropylcellulose) (HPC)”, the survivor count is given as 6 of 6.

`COc1cc2c(cc1OC)C(CC1=C(c3ccccc3)CN3CCc4cc(OC)c(OC)cc4C3C1)NCC2` (stereo not given): under setting [8], the survivor count was 1 of 6 and 2 of 6.

Regarding `COc1ccc2c(=O)c(C)c(C)oc2c1CN1CCOCC1`, under “dose: 12.5 mg/kg/injection, schedule: Q01DX009 (ip), vehicle: saline”, the survivor count was 6 of 6.

As to `OCCN=Cc1ccccc1O.OCCN=Cc1ccccc1O.[Ni]`, under setting [11], the survivor count is given as 2 of 6.

Consider `c1ccc2[nH]c(-c3c[nH]c4ccccc34)cc2c1`, for which the survivor count under setting [4] is given as 0 of 4.

Turning to `Cc1cc(Nc2ccc(C)c(C)c2)nc(N)n1`, the survivor count (dose: 200.0 mg/kg/injection, schedule: Q01DX Z (ip), vehicle: methylcellulose (MC)) is reported as 5 of 6.

As for `C=C1C(=O)O[C@@H]2/C=C(/C)[C@@]3(O)C=C[C@](C)(C[C@@H](OC(=O)/C(=C\C)COC(C)=O)[C@@H]12)O3`, the survivor count (dose: 0.12 mg/kg/injection, schedule: Q01DX009 (ip), vehicle: carboxymethylcellulose (CMC)) is 4 of 6; the survivor count (dose: 0.25 mg/kg/injection, schedule: Q01DX009 (ip), vehicle: carboxymethylcellulose (CMC)) was 3 of 6; the survivor count (dose: 0.5 mg/kg/injection, schedule: Q01DX009 (ip), vehicle: carboxymethylcellulose (CMC)) is on record as 3 of 6; the survivor count (dose: 1.0 mg/kg/injection, schedule: Q01DX009 (ip), vehicle: carboxymethylcellulose (CMC)) was 2 of 6 and 3 of 6; the survivor count (dose: 2.0 mg/kg/injection, schedule: Q01DX009 (ip), vehicle: carboxymethylcellulose (CMC)) is listed as 3 of 6; the survivor count (dose: 4.0 mg/kg/injection, schedule: Q01DX009 (ip), vehicle: carboxymethylcellulose (CMC)) was 1 of 6. Also, the survivor count (dose: 8.0 mg/kg/injection, schedule: Q01DX009 (ip), vehicle: carboxymethylcellulose (CMC)) is reported as 1 of 6.

With `CCOC(=O)C1CSCC1=O` (stereo not given), the survivor count is listed as 6 of 6 (dose: 200.0 mg/kg/injection, schedule: Q01DX009 (ip), vehicle: water) and 2 of 6 (dose: 400.0 mg/kg/injection, schedule: Q01DX009 (ip), vehicle: water).

Take `CN=C(NCCCOC)c1ccc(NC(=O)Nc2ccc(NC(=O)Nc3ccc(C(=NC)NCCCOC)cc3)cc2)cc1`: the survivor count runs as follows: (dose: 15.0 mg/kg/injection, schedule: Q01DX Z (ip), vehicle: carboxymethylcellulose (CMC)) 1 of 6; (dose: 30.0 mg/kg/injection, schedule: Q01DX Z (ip), vehicle: carboxymethylcellulose (CMC)) 2 of 6; (dose: 60.0 mg/kg/injection, schedule: Q01DX Z (ip), vehicle: carboxymethylcellulose (CMC)) 0 of 6; (dose: 120.0 mg/kg/injection, schedule: Q01DX Z (ip), vehicle: carboxymethylcellulose (CMC)) 0 of 6.

Turning to `CC1(C)C2CCC1(C)C(NC(=O)N(CCCl)N=O)C2` (stereo not given), the T/C is, setting by setting: (dose: 300.0 mg/kg/injection, schedule: Q01DX001 (ip), vehicle: carboxymethylcellulose (CMC)) 148 % of control; (dose: 750.0 mg/kg/injection, schedule: Q01DX001 (ip), vehicle: carboxymethylcellulose (CMC)) 145 % of control.

With `N=c1nc(N)nc2c3ccccc3nnn12`, the survivor count under setting [11] is 1 of 6.

In the case of `COCC(CNO)OC(=O)c1ccc(N)cc1` (stereo not given), the survivor count (dose: 83.0 mg/kg/injection, schedule: Q01DX Z (ip), vehicle: saline) is reported as 5 of 6.

For `c1ccc(-n2ncn[n+]2-c2ccccc2)cc1`, the survivor count runs as follows: under setting [1], 0 of 6; under setting [3], 0 of 6; under setting [4], 0 of 6.
